{"source": "the supplement of paper PMC8728848", "binders": {"B1": {"name": "YghJ (Escherichia coli), E3PJ90 (protein)", "chain": "MNKKFKYKKSLLAAILSATLLAGCDGGGSGSSSDTPPVDSGTGSLPEVKPDPTPNPEPTPEPTPDPEPTPEPIPDPEPTPEPEPEPVPTKTGYLTLGGSQRVTGATCNGESSDGFTFKPGEDVTCVAGNTTIATFNTQSEAARSLRAVEKVSFSLEDAQELAGSDDKKSNAVSLVTSSNSCPANTEQVCLTFSSVIESKRFDSLYKQIDLAPEEFKKLVNEEVENNAATDKAPSTHTSPVVPVTTPGTKPDLNASFVSANAEQFYQYQPTEIILSEGRLVDSQGYGVAGVNYYTNSGRGVTGENGEFSFSWGEAISFGIDTFELGSVRGNKSTIALTELGDEVRGANIDQLIHRYSTTGQNNTRVVPDDVRKVFAEYPNVINEIINLSLSNGATLGEGEQVVNLPNEFIEQFNTGQAKEIDTAICAKTDGCNEARWFSLTTRNVNDGQIQGVINKLWGVDTNYKSVSKFHVFHDSTNFYGSTGNARGQAVVNISNAAFPILMARNDKNYWLAFGEKRAWDKNELAYITEAPSIVRPENVTRETASFNLPFISLGQVGDGKLMVIGNPHYNSILRCPNGYSWNGGVNKDGQCTLNSDPDDMKNFMENVLRYLSNDRWLPDAKSSMTVGTNLETVYFKKHGQVLGNSAPFAFHKDFTGITVKPMTSYGNLNPDEVPLLILNGFEYVTQWGSDPYSIPLRADTSKPKLTQQDVTDLIAYMNKGGSVLIMENVMSNLKEESASGFVRLLDAAGLSMALNKSVVNNDPQGYPDRVRQRRSTPIWVYERYPAVDGKPPYTIDDTTKEVIWKYQQENKPDDKPKLEVASWQEEVEGKQVTQFAFIDEADHKTPESLAAAKQRILDAFPGLEVCKDSDYHYEVNCLEYRPGTDVPVTGGMYVPQYTQLDLSADTAKAMLQAADLGTNIQRLYQHELYFRTNGRQGERLNSVDLERLYQNMSVWLWNETKYRYEEGKEDELGFKTFTEFLNCYTNNAYVGTQCSAELKKSLIDNKMIYGEESSKAGMMNPSYPLNYMEKPLTRLMLGRSWWDLNIKVDVEKYPGVVNTNGETVTQNINLYSAPTKWFAGNMQSTGLWAPAQQEVSIESKSTVPVTVTVALADDLTGREKHEVSLNRPPRVTKTYDLKANDKVTFKVPYGGLIYIKGDSKEVQSADFTFTGVVKAPFYKDGKWQHDLNSPAPLGELESASFVYTTPKKNLNASNYTGGLEQFANDLDTFASSMNDFYGRDSEDGKHRMFTYKNLPGHKHRFANDVQISIGDAHSGYPVMNSSFSPNSTTLPTTPLNDWLIWHEVGHNAAETPLTVPGATEVANNVLALYMQDRYLGKMNRVADDITVAPEYLEESNGQAWARGGAGDRLLMYAQLKEWAEKNFDIKKWYPDGTPLPEFYSEREGMKGWNLFQLMHRKARGDEVSNDKFGGKNYCAESNGNAADTLMLCASWVAQTDLSEFFKKWNPGANAYQLPGASEMSFEGGVSQSAYNTLASLDLPKPEQGPETINQVTEHKMSAE"}}, "test_in_all_cases": "glycan array binding signal (z-score within array); higher = stronger binding", "conditions_in_all_cases": "glycan notation: IUPAC condensed, linker removed", "key": {"[1]": {"target": "GlcNAc(b1-3)Gal(b1-4)GlcNAc(b1-3)Gal(b1-4)GlcNAc(b1-3)GalNAc", "procedure,_shortened": "(§1)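 Negative Z-scores can be read as non-binding. The Z-score is calculated within each array and then averaged across arrays of one protein sequence at different concentrations or buffers and across linkers. Arrays, 3228 in all, were curated from the Consortium for Functional Glycomics database and kept only where the protein sequence was available.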"}, "[2]": {"target": "GlcNAc(b1-3)Gal(b1-4)GlcNAc(b1-3)GalNAc", "procedure,_shortened": "as §1"}, "[3]": {"target": "GlcNAc(b1-3)Gal(b1-4)GlcNAc(b1-3)[GlcNAc(b1-3)Gal(b1-4)GlcNAc(b1-3)]GalNAc", "procedure,_shortened": "as §1"}, "[4]": {"target": "GlcNAc(b1-3)Gal(b1-4)GlcNAc(b1-6)[Gal(b1-3)]GalNAc", "procedure,_shortened": "as §1"}, "[5]": {"target": "GlcNAc(b1-3)Gal(b1-4)GlcNAc(b1-6)[GlcNAc(b1-3)Gal(b1-3)]GalNAc", "procedure,_shortened": "as §1"}, "[6]": {"target": "GlcNAc(b1-3)Gal(b1-4)GlcNAc(b1-6)[GlcNAc(b1-3)]Gal(b1-4)GlcNAc", "procedure,_shortened": "as §1"}, "GlcNAc(b1-3)GalNAc": {"target": "GlcNAc(b1-3)GalNAc", "procedure,_shortened": "as §1"}, "GlcNAc(b1-3)Man": {"target": "GlcNAc(b1-3)Man", "procedure,_shortened": "as §1"}, "[7]": {"target": "GlcNAc(b1-3)[GlcNAc(b1-4)][GlcNAc(b1-6)]GlcNAc", "procedure,_shortened": "as §1"}, "[8]": {"target": "GlcNAc(b1-3)[GlcNAc(b1-6)]Gal(b1-4)GlcNAc", "procedure,_shortened": "as §1"}, "[9]": {"target": "GlcNAc(b1-3)[GlcNAc(b1-6)]GalNAc", "procedure,_shortened": "as §1"}, "[10]": {"target": "GlcNAc(b1-4)Gal(b1-4)GlcNAc", "procedure,_shortened": "as §1"}, "GlcNAc(b1-4)GlcNAc": {"target": "GlcNAc(b1-4)GlcNAc", "procedure,_shortened": "as §1"}, "[11]": {"target": "GlcNAc(b1-4)GlcNAc(b1-4)GlcNAc", "procedure,_shortened": "as §1"}, "[12]": {"target": "GlcNAc(b1-4)GlcNAc(b1-4)GlcNAc(b1-4)GlcNAc(b1-4)GlcNAc", "procedure,_shortened": "as §1"}, "[13]": {"target": "GlcNAc(b1-4)GlcNAc(b1-4)GlcNAc(b1-4)GlcNAc(b1-4)GlcNAc(b1-4)GlcNAc", "procedure,_shortened": "as §1"}, "[14]": {"target": "GlcNAc(b1-4)[GlcNAc(b1-6)]GalNAc", "procedure,_shortened": "as §1"}, "[15]": {"target": "GlcNAc(b1-6)Gal(b1-4)GlcNAc", "procedure,_shortened": "as §1"}, "GlcNAc(b1-6)GalNAc": {"target": "GlcNAc(b1-6)GalNAc", "procedure,_shortened": "as §1"}, "[16]": {"target": "GlcNAc6S(b1-3)Gal(b1-4)GlcNAc", "procedure,_shortened": "as §1"}, "Kdn(a2-3)Gal(b1-3)GalNAc": {"target": "Kdn(a2-3)Gal(b1-3)GalNAc", "procedure,_shortened": "as §1"}, "Kdn(a2-3)Gal(b1-3)GlcNAc": {"target": "Kdn(a2-3)Gal(b1-3)GlcNAc", "procedure,_shortened": "as §1"}, "Kdn(a2-3)Gal(b1-4)Glc": {"target": "Kdn(a2-3)Gal(b1-4)Glc", "procedure,_shortened": "as §1"}, "Kdn(a2-3)Gal(b1-4)GlcNAc": {"target": "Kdn(a2-3)Gal(b1-4)GlcNAc", "procedure,_shortened": "as §1"}, "[17]": {"target": "Kdn(a2-3)Gal(b1-4)[Fuc(a1-3)]GlcNAc", "procedure,_shortened": "as §1"}, "Kdn(a2-6)Gal(b1-4)GlcNAc": {"target": "Kdn(a2-6)Gal(b1-4)GlcNAc", "procedure,_shortened": "as §1"}, "[18]": {"target": "Man(a1-2)Man(a1-2)Man(a1-3)Man", "procedure,_shortened": "as §1"}, "[19]": {"target": "Man(a1-2)Man(a1-2)Man(a1-6)[Man(a1-3)]Man", "procedure,_shortened": "as §1"}, "Man(a1-2)Man(a1-3)Man": {"target": "Man(a1-2)Man(a1-3)Man", "procedure,_shortened": "as §1"}, "[20]": {"target": "Man(a1-2)Man(a1-3)[Man(a1-2)Man(a1-6)]Man", "procedure,_shortened": "as §1"}}, "note": "Some of the results follow."}
{"binder": "B1", "values": [{"measurement": "glycan array binding signal (z-score)", "setting": "[1]", "value": -0.506}, {"measurement": "glycan array binding signal (z-score)", "setting": "[2]", "value": 0.071}, {"measurement": "glycan array binding signal (z-score)", "setting": "[3]", "value": 2.97}, {"measurement": "glycan array binding signal (z-score)", "setting": "[4]", "value": 2.08}, {"measurement": "glycan array binding signal (z-score)", "setting": "[5]", "value": -1.09}, {"measurement": "glycan array binding signal (z-score)", "setting": "[6]", "value": -1.26}, {"measurement": "glycan array binding signal (z-score)", "setting": "GlcNAc(b1-3)GalNAc", "value": -0.989}, {"measurement": "glycan array binding signal (z-score)", "setting": "GlcNAc(b1-3)Man", "value": -0.568}, {"measurement": "glycan array binding signal (z-score)", "setting": "[7]", "value": -1.48}, {"measurement": "glycan array binding signal (z-score)", "setting": "[8]", "value": -1.3}, {"measurement": "glycan array binding signal (z-score)", "setting": "[9]", "value": 0.594}, {"measurement": "glycan array binding signal (z-score)", "setting": "[10]", "value": -0.962}, {"measurement": "glycan array binding signal (z-score)", "setting": "GlcNAc(b1-4)GlcNAc", "value": 0.19}, {"measurement": "glycan array binding signal (z-score)", "setting": "[11]", "value": -1.02}, {"measurement": "glycan array binding signal (z-score)", "setting": "[12]", "value": -0.443}, {"measurement": "glycan array binding signal (z-score)", "setting": "[13]", "value": -2.26}, {"measurement": "glycan array binding signal (z-score)", "setting": "[14]", "value": -0.479}, {"measurement": "glycan array binding signal (z-score)", "setting": "[15]", "value": 0.015}, {"measurement": "glycan array binding signal (z-score)", "setting": "GlcNAc(b1-6)GalNAc", "value": -1.05}, {"measurement": "glycan array binding signal (z-score)", "setting": "[16]", "value": -1.38}, {"measurement": "glycan array binding signal (z-score)", "setting": "Kdn(a2-3)Gal(b1-3)GalNAc", "value": 0.314}, {"measurement": "glycan array binding signal (z-score)", "setting": "Kdn(a2-3)Gal(b1-3)GlcNAc", "value": -0.046}, {"measurement": "glycan array binding signal (z-score)", "setting": "Kdn(a2-3)Gal(b1-4)Glc", "value": 0.908}, {"measurement": "glycan array binding signal (z-score)", "setting": "Kdn(a2-3)Gal(b1-4)GlcNAc", "value": 0.018}, {"measurement": "glycan array binding signal (z-score)", "setting": "[17]", "value": -0.222}, {"measurement": "glycan array binding signal (z-score)", "setting": "Kdn(a2-6)Gal(b1-4)GlcNAc", "value": -0.364}, {"measurement": "glycan array binding signal (z-score)", "setting": "[18]", "value": 0.657}, {"measurement": "glycan array binding signal (z-score)", "setting": "[19]", "value": -1.38}, {"measurement": "glycan array binding signal (z-score)", "setting": "Man(a1-2)Man(a1-3)Man", "value": -0.928}, {"measurement": "glycan array binding signal (z-score)", "setting": "[20]", "value": -0.82}]}
